# Assay results taken from the supplement of paper PMC8728848.
# The list shows a part of the results.
# B1: PEB3 (Campylobacter jejuni), Q0PBL7 (protein)
# chain: MKKIITLFGACALAFSMANADVNLYGPGGPHTALKDIANKYSEKTGVKVNVNFGPQATWFEKAKKDADILFGASDQSALAIASDFGKDFNVSKIKPLYFREAIILTQKGNPLKIKGLKDLANKKVRIVVPEGAGKSNTSGTGVWEDMIGRTQDIKTIQNFRNNIVAFVPNSGSARKLFAQDQADAWITWIDWSKSNPDIGTAVAIEKDLVVYRTFNVIAKEGASKETQDFIAYLSSKEAKEIFKKYGWRE
# How the values were obtained:
# Test in all cases: glycan array binding signal (z-score within array); higher = stronger binding
# Conditions in all cases: glycan notation: IUPAC condensed, linker removed
# [1] = biological target: Neu5Ac(a2-3)Gal(b1-4)[Fuc(a1-3)]GlcNAc(b1-3)Gal
# Outline: (§1)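 Negative Z-scores can be read as non-binding. The Z-score is calculated within each array and then averaged across arrays of one protein sequence at different concentrations or buffers and across linkers. Arrays, 3228 in all, were curated from the Consortium for Functional Glycomics database and kept only where the protein sequence was available.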
# [2] = biological target: Neu5Ac(a2-3)Gal(b1-4)[Fuc(a1-3)]GlcNAc(b1-3)Gal(b1-4)GlcNAc
# Outline: as §1
# [3] = biological target: Neu5Ac(a2-3)Gal(b1-4)[Fuc(a1-3)]GlcNAc(b1-3)Gal(b1-4)[Fuc(a1-3)]GlcNAc(b1-3)Gal(b1-4)[Fuc(a1-3)]GlcNAc
# Outline: as §1
# [4] = biological target: Neu5Ac(a2-3)Gal(b1-4)[Fuc(a1-3)]GlcNAc(b1-3)GalNAc
# Outline: as §1
# [5] = biological target: Neu5Ac(a2-3)Gal(b1-4)[Fuc(a1-3)]GlcNAc(b1-6)[Gal(b1-3)]GalNAc
# Outline: as §1
# [6] = biological target: Neu5Ac(a2-3)Gal(b1-4)[Fuc(a1-3)]GlcNAc(b1-6)[Neu5Ac(a2-3)Gal(b1-3)]GalNAc
# Outline: as §1
# [7] = biological target: Neu5Ac(a2-3)Gal(b1-4)[Fuc(a1-3)]GlcNAc6S
# Outline: as §1
# [8] = biological target: Neu5Ac(a2-3)Gal6S(b1-4)GlcNAc
# Outline: as §1
# [9] = biological target: Neu5Ac(a2-3)Gal6S(b1-4)[Fuc(a1-3)]GlcNAc
# Outline: as §1
# [10] = biological target: Neu5Ac(a2-3)GalNAc
# Outline: as §1
# [11] = biological target: Neu5Ac(a2-3)GalNAc(b1-4)GlcNAc
# Outline: as §1
# [12] = biological target: Neu5Ac(a2-3)[GalNAc(b1-4)]Gal(b1-4)Glc
# Outline: as §1
# [13] = biological target: Neu5Ac(a2-3)[GalNAc(b1-4)]Gal(b1-4)GlcNAc
# Outline: as §1
# [14] = biological target: Neu5Ac(a2-3)[GalNAc(b1-4)]Gal(b1-4)GlcNAc(b1-3)GalNAc
# Outline: as §1
# [15] = biological target: Neu5Ac(a2-3)[Neu5Ac(a2-6)]GalNAc
# Outline: as §1
# [16] = biological target: Neu5Ac(a2-6)Gal
# Outline: as §1
# [17] = biological target: Neu5Ac(a2-6)Gal(b1-4)Glc
# Outline: as §1
# [18] = biological target: Neu5Ac(a2-6)Gal(b1-4)GlcNAc
# Outline: as §1
# [19] = biological target: Neu5Ac(a2-6)Gal(b1-4)GlcNAc(b1-2)Man(a1-3)Man(b1-4)GlcNAc(b1-4)GlcNAc
# Outline: as §1
# [20] = biological target: Neu5Ac(a2-6)Gal(b1-4)GlcNAc(b1-2)Man(a1-3)[Gal(b1-4)GlcNAc(b1-2)Man(a1-6)]Man(b1-4)GlcNAc(b1-4)GlcNAc
# Outline: as §1
# [21] = biological target: Neu5Ac(a2-6)Gal(b1-4)GlcNAc(b1-2)Man(a1-3)[GlcNAc(b1-2)Man(a1-6)]Man(b1-4)GlcNAc(b1-4)GlcNAc
# Outline: as §1
# [22] = biological target: Neu5Ac(a2-6)Gal(b1-4)GlcNAc(b1-2)Man(a1-3)[GlcNAc(b1-2)Man(b1-4)GlcNAc(b1-2)Man(a1-6)]Man(b1-4)GlcNAc(b1-4)GlcNAc
# Outline: as §1
# [23] = biological target: Neu5Ac(a2-6)Gal(b1-4)GlcNAc(b1-2)Man(a1-3)[Man(a1-6)]Man(b1-4)GlcNAc(b1-4)GlcNAc
# Outline: as §1
# [24] = biological target: Neu5Ac(a2-6)Gal(b1-4)GlcNAc(b1-2)Man(a1-3)[Neu5Ac(a2-6)Gal(b1-4)GlcNAc(b1-2)Man(a1-6)]Man(b1-4)GlcNAc(b1-4)GlcNAc
# Outline: as §1
# [25] = biological target: Neu5Ac(a2-6)Gal(b1-4)GlcNAc(b1-2)Man(a1-6)Man(b1-4)GlcNAc(b1-4)GlcNAc
# Outline: as §1
# [26] = biological target: Neu5Ac(a2-6)Gal(b1-4)GlcNAc(b1-2)Man(a1-6)[Gal(b1-4)GlcNAc(b1-2)Man(a1-3)]Man(b1-4)GlcNAc(b1-4)GlcNAc
# Outline: as §1
# [27] = biological target: Neu5Ac(a2-6)Gal(b1-4)GlcNAc(b1-2)Man(a1-6)[GlcNAc(b1-2)Man(a1-3)]Man(b1-4)GlcNAc(b1-4)GlcNAc
# Outline: as §1
# [28] = biological target: Neu5Ac(a2-6)Gal(b1-4)GlcNAc(b1-2)Man(a1-6)[Man(a1-3)]Man(b1-4)GlcNAc(b1-4)GlcNAc
# Outline: as §1
# [29] = biological target: Neu5Ac(a2-6)Gal(b1-4)GlcNAc(b1-3)Gal(b1-3)GlcNAc
# Outline: as §1
# [30] = biological target: Neu5Ac(a2-6)Gal(b1-4)GlcNAc(b1-3)Gal(b1-4)GlcNAc
# Outline: as §1
# [31] = biological target: Neu5Ac(a2-6)Gal(b1-4)GlcNAc(b1-3)Gal(b1-4)GlcNAc(b1-3)Gal(b1-4)GlcNAc
# Outline: as §1
# [32] = biological target: Neu5Ac(a2-6)Gal(b1-4)GlcNAc(b1-3)Gal(b1-4)[Fuc(a1-3)]GlcNAc(b1-3)Gal(b1-4)[Fuc(a1-3)]GlcNAc
# Outline: as §1
# [33] = biological target: Neu5Ac(a2-6)Gal(b1-4)GlcNAc(b1-3)GalNAc
# Outline: as §1
# [34] = biological target: Neu5Ac(a2-6)Gal(b1-4)GlcNAc6S
# Outline: as §1
# [35] = biological target: Neu5Ac(a2-6)GalNAc
# Outline: as §1
# [36] = biological target: Neu5Ac(a2-6)GalNAc(b1-4)GlcNAc
# Outline: as §1
# [37] = biological target: Neu5Ac(a2-6)GlcNAc(b1-4)GlcNAc
# Outline: as §1
# [38] = biological target: Neu5Ac(a2-6)GlcNAc(b1-4)GlcNAc(b1-4)GlcNAc
# Outline: as §1
binder,measurement,setting,value
B1,glycan array binding signal (z-score),[1],-0.437
same,glycan array binding signal (z-score),[2],0.992
same,glycan array binding signal (z-score),[3],-0.931
same,glycan array binding signal (z-score),[4],4.53
same,glycan array binding signal (z-score),[5],-1.17
same,glycan array binding signal (z-score),[6],1.03
same,glycan array binding signal (z-score),[7],-1.46
same,glycan array binding signal (z-score),[8],-0.268
same,glycan array binding signal (z-score),[9],-0.317
same,glycan array binding signal (z-score),[10],-1.08
same,glycan array binding signal (z-score),[11],-0.617
same,glycan array binding signal (z-score),[12],-0.446
same,glycan array binding signal (z-score),[13],-0.219
same,glycan array binding signal (z-score),[14],0.433
same,glycan array binding signal (z-score),[15],-1.9
same,glycan array binding signal (z-score),[16],1.53
same,glycan array binding signal (z-score),[17],-0.626
same,glycan array binding signal (z-score),[18],-0.802
same,glycan array binding signal (z-score),[19],1.61
same,glycan array binding signal (z-score),[20],0.395
same,glycan array binding signal (z-score),[21],-0.555
same,glycan array binding signal (z-score),[22],0.609
same,glycan array binding signal (z-score),[23],0.136
same,glycan array binding signal (z-score),[24],0.39
same,glycan array binding signal (z-score),[25],-0.233
same,glycan array binding signal (z-score),[26],-0.581
same,glycan array binding signal (z-score),[27],-0.237
same,glycan array binding signal (z-score),[28],1.2
same,glycan array binding signal (z-score),[29],-0.446
same,glycan array binding signal (z-score),[30],-0.164
same,glycan array binding signal (z-score),[31],0.854
same,glycan array binding signal (z-score),[32],0.355
same,glycan array binding signal (z-score),[33],-0.21
same,glycan array binding signal (z-score),[34],-0.285
same,glycan array binding signal (z-score),[35],-0.895
same,glycan array binding signal (z-score),[36],0.74
same,glycan array binding signal (z-score),[37],-0.895
same,glycan array binding signal (z-score),[38],-0.286

# A section taken from the entries so far, as a working copy:
binder,measurement,setting,value
B1,glycan array binding signal (z-score),[7],-1.46
same,glycan array binding signal (z-score),[8],-0.268
